Experimental data reported in article PMC2504488.
No constants are given. Whether binding was seen depends on the method and setting. In cells and extracts the contact can be indirect. Some binding calls cover weakened binding; strength is not graded here. For some assays here: Tags and fused reporters may be left off the sequences shown.

Amino acid sequences for entries named in this document (tags omitted).
UniProt O22467: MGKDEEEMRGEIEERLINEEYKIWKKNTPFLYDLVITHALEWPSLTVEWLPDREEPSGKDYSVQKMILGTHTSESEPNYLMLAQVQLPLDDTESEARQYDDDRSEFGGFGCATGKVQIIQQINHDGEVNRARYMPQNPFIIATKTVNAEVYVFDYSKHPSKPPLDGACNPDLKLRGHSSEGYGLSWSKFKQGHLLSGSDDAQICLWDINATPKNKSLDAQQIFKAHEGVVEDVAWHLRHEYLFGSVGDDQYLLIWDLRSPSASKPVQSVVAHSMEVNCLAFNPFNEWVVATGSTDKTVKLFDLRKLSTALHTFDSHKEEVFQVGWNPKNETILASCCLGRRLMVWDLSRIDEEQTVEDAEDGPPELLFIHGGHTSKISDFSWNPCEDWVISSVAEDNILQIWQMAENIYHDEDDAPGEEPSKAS

Legend:
[1] = molecular target: GST-MSI1 fusion protein (Arabidopsis MULTICOPYSUPPRESSOR OF IRA1) (Arabidopsis) (UniProt O22467); assay: pull-down; GST-MSI1 immobilized on glutathione agarose beads, incubated with [35S]methionine-labeled RBR1 from reticulocyte lysate; six washes with NETN buffer (100 mM NaCl, 1 mM EDTA, 20 mM Tris pH 8.0, 0.5% NP-40); autoradiography; only the target purified
[2] = molecular target: YN-MSI1 (MSI1 fused to the N-terminal part of YFP) (Arabidopsis) (UniProt O22467); assay: split reporter; BiFC with YN and YC fusions transiently coexpressed in N. benthamiana leaf epidermis; 25 °C for 24 h; confocal microscopy of YFP

| binding [1] | binding [2] | Binder |
| --- | --- | --- |
| binds | – | RBR1 (RETINOBLASTOMA RELATED 1), full-length, labeled with [35S] methionine (protein, UniProt Q9LKZ3 1-1013, [35S] methionine label) MEEVQPPVTPPIEPNGKRSEASLLDICEKVLSLDGSTCDEALKLFTETKRILSASMSNIGSGTREEVERFWFAFILYSVKRLSVRKEADGLSVSGDNEFNLCQILRALKLNIVDFFKELPQFVVKAGSVLGELYGADWENRLQAKEVQANFVHLSLLSKYYKRGFREFFLTYDANAEKNSANSSTYLLDSYRFGWLLFLALRNHAFSRFKDLVTCSNGVVSILAILIIHVPCRFRNFSIQDSSRFVKKGDKGVDLVASLCKIYDASEDELRIVIDKANNLVETILKKKPSPASECQTDKLDNIDPDGLTYFEDLLEETSISTSLITLEKDYYDGKGELDERVFINEEDSLLGSGSLSAGAVNITGVKRKIDALSSPARTFISPLSPHKSPAAKTNGISGATKLAATPVSTAMTTAKWLRTVISPLLPKPSPGLEHFLKSCDRDITNDVTRRAHIILEAIFPNSSLGAQCGGGSLQAVDLMDDIWAEQRRLEACKLYYRVLEAMCKAEAQILHANNLNSLLTNERFHRCMLACSAELVLATHKTITMLFPAVLERTGITAFDLSKVIESFIRHEDSLPRELRRHLNSLEERLLESMVWEKGSSMYNSLIVARPSLALEINQLGLLAEPMPSLDAIAALINFSDGANHASSVQKHETCPGQNGGIRSPKRLCTDYRSILVERNSFTSPVKDRLLALGNVKSKMLPPPLQSAFASPTRPNPGGGGETCAETGINIFFTKINKLAAVRINGMVERLQLSQQIRESVYCFFQHVLAQRTSLLFSRHIDQIILCCFYGVAKISQMSLTFREIIYNYRKQPQCKPLVFRSVYVDALQCRRQGRIGPDHVDIITFYNEIFIPAVKPLLVELGPVRNDRAVEANNKPEGQCPGSPKVSVFPSVPDMSPKKVSAVHNVYVSPLRGSKMDALISHSTKSYYACVGESTHAYQSPSKDLSAINNRLNNSSSNRKRTLNFDAEAGMVSDSMVANSLNLQNQNQNQNGSDASSSGGAAPLKTEPTDS |
| – | binds | YC-RBR1 (RBR1 fused to the C-terminal part of YFP) (protein, UniProt Q9LKZ3 1-1013) MEEVQPPVTPPIEPNGKRSEASLLDICEKVLSLDGSTCDEALKLFTETKRILSASMSNIGSGTREEVERFWFAFILYSVKRLSVRKEADGLSVSGDNEFNLCQILRALKLNIVDFFKELPQFVVKAGSVLGELYGADWENRLQAKEVQANFVHLSLLSKYYKRGFREFFLTYDANAEKNSANSSTYLLDSYRFGWLLFLALRNHAFSRFKDLVTCSNGVVSILAILIIHVPCRFRNFSIQDSSRFVKKGDKGVDLVASLCKIYDASEDELRIVIDKANNLVETILKKKPSPASECQTDKLDNIDPDGLTYFEDLLEETSISTSLITLEKDYYDGKGELDERVFINEEDSLLGSGSLSAGAVNITGVKRKIDALSSPARTFISPLSPHKSPAAKTNGISGATKLAATPVSTAMTTAKWLRTVISPLLPKPSPGLEHFLKSCDRDITNDVTRRAHIILEAIFPNSSLGAQCGGGSLQAVDLMDDIWAEQRRLEACKLYYRVLEAMCKAEAQILHANNLNSLLTNERFHRCMLACSAELVLATHKTITMLFPAVLERTGITAFDLSKVIESFIRHEDSLPRELRRHLNSLEERLLESMVWEKGSSMYNSLIVARPSLALEINQLGLLAEPMPSLDAIAALINFSDGANHASSVQKHETCPGQNGGIRSPKRLCTDYRSILVERNSFTSPVKDRLLALGNVKSKMLPPPLQSAFASPTRPNPGGGGETCAETGINIFFTKINKLAAVRINGMVERLQLSQQIRESVYCFFQHVLAQRTSLLFSRHIDQIILCCFYGVAKISQMSLTFREIIYNYRKQPQCKPLVFRSVYVDALQCRRQGRIGPDHVDIITFYNEIFIPAVKPLLVELGPVRNDRAVEANNKPEGQCPGSPKVSVFPSVPDMSPKKVSAVHNVYVSPLRGSKMDALISHSTKSYYACVGESTHAYQSPSKDLSAINNRLNNSSSNRKRTLNFDAEAGMVSDSMVANSLNLQNQNQNQNGSDASSSGGAAPLKTEPTDS |
